The other results are listed elsewhere or left out. Shown are side measurements of this screen, not its main read-out; they come without a call. Most of these compounds were active or inconclusive in the main read-out, so they are no random draw. The note in brackets gives the kind of curve behind each potency; many fits are weak.
assay: Cell signaling CRE-BLA (Fsk stim); conditions: CHO CRE-bla reporter (cAMP response element driving beta-lactamase), forskolin EC10, beta-lactamase ratio; measured here: 460 nm blue channel
How it was run: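 CHO CRE-bla cells, overnight plating in Opti-MEM with 0.5% dialyzed FBS; cpd titration + EC10 NKH 477, 3 h 37 °C; CCF4 2 h RT; ex 405/em 460 vs 530 ratio → %Activity, AC50.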

SMILES	AC50
O=S(=O)(O)c1cc(O)c2c(N=Cc3ccccc3O)cc(S(=O)(=O)O)cc2c1	3.98 µM [rising, single point]
Cc1ccc(S(=O)(=O)NCc2ccc(C(=O)N3CCN(c4ccccn4)CC3)cc2)cc1	0.01 µM [falling, full curve, poor fit]
O=C(NCCCN1CCCC1=O)c1ccc2c(c1)ncn2C1CCCCC1	12.6 µM [rising, single point]
O=c1oc2ccccc2n1CSc1nc2ccccc2s1	5.01 µM [falling, single point]
O=c1c2c3nc4ccccc4nc3n(/N=C/c3cccs3)c2ncn1-c1ccccc1	12.6 µM [rising, partial curve]
Cc1cccc(NC(=O)CSc2nnc(-c3ccccc3)n2N)c1	3.16 µM [falling, full curve, poor fit]
CCn1c(SCC(=O)NCc2ccco2)nnc1C(C)C	0.501 µM [falling, full curve, poor fit]
O=C(CCN1CCN(c2ccc(F)cc2)CC1)Nc1ccc(F)cc1	20 µM [falling, partial curve, poor fit]
CCN(CCNC(=O)CCCn1nc(C)n2c(cc3sccc32)c1=O)c1ccccc1	10 µM [rising, single point]
CC(=O)C1=C(C)NC(SCSc2ccccc2)=C(C#N)C1c1cccnc1 (stereo not drawn)	2 µM [rising, full curve, poor fit]
Cc1nn(Cc2ccccc2)c(C)c1NC(=O)c1cc(-c2ccco2)on1	0.0126 µM [falling, full curve, poor fit]
Cc1c(C(=O)N2CCCC2)oc2c1-c1[nH]ncc1CC2	3.98 µM [rising, partial curve]
Clc1ccc(Cn2c(CN3CCCC3)nc3ccccc32)cc1	12.6 µM [falling, single point]
COC(=O)c1cccc(NC(=O)Cn2cnc3c2c(=O)n(C)c(=O)n3C)c1	15.8 µM [rising, single point]
Nn1c(-c2cccs2)nc2sc3c(c2c1=O)CCCC3	10 µM [rising, partial curve]
CCc1ccc(NC(=O)CSc2nc3c(c(=O)n(C)c(=O)n3C)n2C)cc1	12.6 µM [rising, partial curve]
O=C(CN(C(=O)CCC(=O)Nc1nccs1)c1ccc2c(c1)OCO2)NCC1CCCO1 (stereo not drawn)	0.126 µM [falling, single point]
COc1ccc(OC)c(CNC(=O)C2CCCN(c3nc4ccccc4o3)C2)c1 (stereo not drawn)	1.26 µM [rising, full curve, poor fit]
c1ccc(Nc2nc(-c3ccoc3)nc3ccccc23)cc1	5.01 µM [rising, partial curve]
O=C(NCc1ccc(N2CCCC2=O)cc1)c1cnccn1	0.1 µM [falling, partial curve, poor fit]
CCN(CC)C(=O)c1cn(CC)c(=O)c2cc(OC)c(OC)cc12	15.8 µM [rising, single point]
Cc1c(=O)n(OCc2ccccc2)c2ccccc2[n+]1[O-]	3.16 µM [rising, single point]

Random excerpt: 3 records from the list
SMILES	AC50
COC(=O)c1cccc(NC(=O)Cn2cnc3c2c(=O)n(C)c(=O)n3C)c1	15.8 µM [rising, single point]
Clc1ccc(Cn2c(CN3CCCC3)nc3ccccc32)cc1	12.6 µM [falling, single point]
O=C(CCN1CCN(c2ccc(F)cc2)CC1)Nc1ccc(F)cc1	20 µM [falling, partial curve, poor fit]

Additional records follow.

SMILES	AC50
CCOc1ccc2[nH]c(=O)c(C(c3nnnn3CC3CCCO3)N3CCc4ccccc4C3)cc2c1 (stereo not drawn)	12.6 µM [rising, partial curve]
COc1ccc(-c2cc(C(=O)N3CCCCC3)no2)cc1OC	10 µM [rising, single point]
COc1ccccc1CNC(=O)CSc1nc(-c2ccccc2)cn1N	25.1 µM [falling, single point]
COCCn1c(=NC(=O)CSC(C)=O)sc2cc(OC)ccc21	10 µM [rising, single point]
c1ccc(N2CCN(c3nc4ccccc4n4nnnc34)CC2)cc1	0.1 µM [falling, full curve]
CC(C)c1nnc(NC(=O)CCC(=O)NCC2CCCO2)s1 (stereo not drawn)	5.01 µM [falling, partial curve]
CCOC(=O)C1CCN(c2ncnc3c2oc2ccc(Br)cc23)CC1	10 µM [rising, partial curve]
COc1ccc(Cl)cc1C(=O)N(Cc1nc(-c2cccc(C)c2)no1)C(C)C	12.6 µM [falling, single point]
Cc1ccc(-n2ncc(C(=O)NCc3ccc4c(c3)OCO4)c2NC(=O)c2ccco2)cc1C	20 µM [falling, partial curve]
CCCCNc1nc(C)nc2c1nc(-c1ccccc1)n2C1CCN(Cc2ccccc2)C1 (stereo not drawn)	5.01 µM [rising, single point]
Oc1ccc(C=NCC2COc3ccccc3O2)cc1 (stereo not drawn)	0.316 µM [falling, full curve]
CN(C)c1ccc(CN2CCCC(O)C2)cc1 (stereo not drawn)	0.00316 µM [falling, full curve, poor fit]
CC(C)NC(=O)NC(=O)COC(=O)Cc1ccsc1	3.98 µM [falling, partial curve]
CN(C)c1ncc2ncc(=O)n(C)c2n1	12.6 µM [rising, partial curve]
NC(=O)c1cc(-c2ccccc2)nc(N2CCOCC2)n1	3.98 µM [falling, full curve]
CCOC(=O)CNC(=O)C(=O)c1c(O)[nH]c2ccccc12	25.1 µM [falling, single point]
CN(C)c1ncc2nc(-c3ccccc3)c(=O)n(CCc3ccccc3)c2n1	0.501 µM [rising, full curve]
O=[n+]1cc(-c2cc3ccccc3o2)n([O-])c2c1CCCC2	0.794 µM [falling, full curve]
CCc1nc(NCC2CCCO2)c2oc3ccccc3c2n1 (stereo not drawn)	12.6 µM [rising, partial curve]
COC(=O)[C@@]1(Cc2ccc(F)cc2)[C@H]2c3cc(C(=O)N4CCCC4)n(Cc4ccc(Cl)c(C(F)(F)F)c4)c3C[C@H]2CN1C(=O)c1ccccc1	1.58 µM [rising, partial curve]
COc1cc(-c2nnc(COc3ccc4cc(Br)ccc4c3)o2)cc(OC)c1OC	3.16 µM [rising, partial curve]

Source: PubChem BioAssay AID662 (National Center for Advancing Translational Sciences (NCATS), 2007)
